# Reference: the supplement of paper PMC8728848
# The other results are listed elsewhere or left out.
# B1: SfaEH (Escherichia coli), Q1RDG5 (protein)
# chain: LLCRNNQTGQVFNSGDTSFRVNVSPVVQYDKSISVLDLSQLVSCQNEDSTGQNYDYLKILKGSGFSPALDTKTYGRLDFTSRPTGYARQLPLQFDLQVTEAFYQYGVWKPFPAKLYLYPAPGVFGKVINNGDLLATLYVNKFSTKGQEAGERNFTWRFYATNDVYIQTGTCRVSSNNVKVDLPSYPGGPVTVPLTVRCDQTQSVSYTLSGPVTGSGNTVFANTAASGSGGVGIQLSDNVGPVPAGQPRSLGQVGSSPVSLGLKASYALTGQASPTPGAVQSVINVTFSYN
# Columns and labels:
# Assay in all cases: glycan array binding signal (z-score within array); higher = stronger binding
# Details in all cases: glycan notation: IUPAC condensed, linker removed
# [1] = molecular target: GlcNAc(b1-3)Gal(b1-4)GlcNAc(b1-3)Gal(b1-4)GlcNAc(b1-3)GalNAc
# Procedure, shortened: (§1)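 Glycan array data were curated from 3228 arrays in the Consortium for Functional Glycomics database and kept only where the protein sequence was available. Glycan names were converted to IUPAC-condensed notation, and columns mapping to the same glycan were averaged. The binding signal is a within-array Z-score, averaged across arrays of the same protein sequence at different concentrations or buffers and across linkers. Negative Z-scores can be read as non-binding.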
# [2] = molecular target: GlcNAc(b1-3)Gal(b1-4)GlcNAc(b1-3)GalNAc
# Procedure, shortened: as §1
# [3] = molecular target: GlcNAc(b1-3)Gal(b1-4)GlcNAc(b1-3)[GlcNAc(b1-3)Gal(b1-4)GlcNAc(b1-3)]GalNAc
# Procedure, shortened: as §1
# [4] = molecular target: GlcNAc(b1-3)Gal(b1-4)GlcNAc(b1-6)[Gal(b1-3)]GalNAc
# Procedure, shortened: as §1
# [5] = molecular target: GlcNAc(b1-3)Gal(b1-4)GlcNAc(b1-6)[GlcNAc(b1-3)Gal(b1-3)]GalNAc
# Procedure, shortened: as §1
# [6] = molecular target: GlcNAc(b1-3)Gal(b1-4)GlcNAc(b1-6)[GlcNAc(b1-3)]Gal(b1-4)GlcNAc
# Procedure, shortened: as §1
# [7] = molecular target: GlcNAc(b1-3)GalNAc
# Procedure, shortened: as §1
# [8] = molecular target: GlcNAc(b1-3)Man
# Procedure, shortened: as §1
# [9] = molecular target: GlcNAc(b1-3)[GlcNAc(b1-4)][GlcNAc(b1-6)]GlcNAc
# Procedure, shortened: as §1
# [10] = molecular target: GlcNAc(b1-3)[GlcNAc(b1-6)]Gal(b1-4)GlcNAc
# Procedure, shortened: as §1
# [11] = molecular target: GlcNAc(b1-3)[GlcNAc(b1-6)]GalNAc
# Procedure, shortened: as §1
# [12] = molecular target: GlcNAc(b1-4)Gal(b1-4)GlcNAc
# Procedure, shortened: as §1
# [13] = molecular target: GlcNAc(b1-4)GlcNAc
# Procedure, shortened: as §1
# [14] = molecular target: GlcNAc(b1-4)GlcNAc(b1-4)GlcNAc
# Procedure, shortened: as §1
# [15] = molecular target: GlcNAc(b1-4)GlcNAc(b1-4)GlcNAc(b1-4)GlcNAc(b1-4)GlcNAc
# Procedure, shortened: as §1
# [16] = molecular target: GlcNAc(b1-4)GlcNAc(b1-4)GlcNAc(b1-4)GlcNAc(b1-4)GlcNAc(b1-4)GlcNAc
# Procedure, shortened: as §1
# [17] = molecular target: GlcNAc(b1-4)[GlcNAc(b1-6)]GalNAc
# Procedure, shortened: as §1
# [18] = molecular target: GlcNAc(b1-6)Gal(b1-4)GlcNAc
# Procedure, shortened: as §1
# [19] = molecular target: GlcNAc(b1-6)GalNAc
# Procedure, shortened: as §1
# [20] = molecular target: GlcNAc6S(b1-3)Gal(b1-4)GlcNAc
# Procedure, shortened: as §1
# [21] = molecular target: Kdn(a2-3)Gal(b1-3)GalNAc
# Procedure, shortened: as §1
# [22] = molecular target: Kdn(a2-3)Gal(b1-3)GlcNAc
# Procedure, shortened: as §1
# [23] = molecular target: Kdn(a2-3)Gal(b1-4)Glc
# Procedure, shortened: as §1
# [24] = molecular target: Kdn(a2-3)Gal(b1-4)GlcNAc
# Procedure, shortened: as §1
# [25] = molecular target: Kdn(a2-3)Gal(b1-4)[Fuc(a1-3)]GlcNAc
# Procedure, shortened: as §1
# [26] = molecular target: Kdn(a2-6)Gal(b1-4)GlcNAc
# Procedure, shortened: as §1
# [27] = molecular target: Man(a1-2)Man(a1-2)Man(a1-3)Man
# Procedure, shortened: as §1
# [28] = molecular target: Man(a1-2)Man(a1-2)Man(a1-6)[Man(a1-3)]Man
# Procedure, shortened: as §1
# [29] = molecular target: Man(a1-2)Man(a1-3)Man
# Procedure, shortened: as §1
# [30] = molecular target: Man(a1-2)Man(a1-3)[Man(a1-2)Man(a1-6)]Man
# Procedure, shortened: as §1
# [31] = molecular target: Man(a1-2)Man(a1-3)[Man(a1-2)Man(a1-6)]Man(a1-6)[Man(a1-2)Man(a1-2)Man(a1-3)]Man
# Procedure, shortened: as §1
# [32] = molecular target: Man(a1-2)Man(a1-3)[Man(a1-2)Man(a1-6)]Man(a1-6)[Man(a1-2)Man(a1-2)Man(a1-3)]Man(b1-4)GlcNAc(b1-4)GlcNAc
# Procedure, shortened: as §1
# [33] = molecular target: Man(a1-2)Man(a1-3)[Man(a1-6)]Man(a1-6)[Man(a1-2)Man(a1-3)]Man(b1-4)GlcNAc(b1-4)GlcNAc
# Procedure, shortened: as §1
# [34] = molecular target: Man(a1-2)Man(a1-6)[Man(a1-3)]Man(a1-6)[Man(a1-2)Man(a1-2)Man(a1-3)]Man
# Procedure, shortened: as §1
# [35] = molecular target: Man(a1-2)Man(a1-6)[Man(a1-3)]Man(a1-6)[Man(a1-2)Man(a1-2)Man(a1-3)]Man(b1-4)GlcNAc(b1-4)GlcNAc
# Procedure, shortened: as §1
# [36] = molecular target: Man(a1-3)[Man(a1-6)]Man
# Procedure, shortened: as §1
# [37] = molecular target: Man(a1-3)[Man(a1-6)]Man(a1-6)[Man(a1-2)Man(a1-3)]Man(b1-4)GlcNAc(b1-4)GlcNAc
# Procedure, shortened: as §1
binder,measurement,setting,value
B1,glycan array binding signal (z-score),[1],0.621
same,glycan array binding signal (z-score),[2],0.491
same,glycan array binding signal (z-score),[3],0.026
same,glycan array binding signal (z-score),[4],-0.083
same,glycan array binding signal (z-score),[5],-0.578
same,glycan array binding signal (z-score),[6],-0.044
same,glycan array binding signal (z-score),[7],-0.271
same,glycan array binding signal (z-score),[8],-0.51
same,glycan array binding signal (z-score),[9],0.899
same,glycan array binding signal (z-score),[10],-0.093
same,glycan array binding signal (z-score),[11],0.013
same,glycan array binding signal (z-score),[12],-0.293
same,glycan array binding signal (z-score),[13],-0.35
same,glycan array binding signal (z-score),[14],-0.487
same,glycan array binding signal (z-score),[15],0.079
same,glycan array binding signal (z-score),[16],-0.573
same,glycan array binding signal (z-score),[17],-0.105
same,glycan array binding signal (z-score),[18],0.143
same,glycan array binding signal (z-score),[19],-0.528
same,glycan array binding signal (z-score),[20],0.278
same,glycan array binding signal (z-score),[21],-0.452
same,glycan array binding signal (z-score),[22],0.537
same,glycan array binding signal (z-score),[23],-0.559
same,glycan array binding signal (z-score),[24],-0.902
same,glycan array binding signal (z-score),[25],-0.599
same,glycan array binding signal (z-score),[26],-0.724
same,glycan array binding signal (z-score),[27],-0.211
same,glycan array binding signal (z-score),[28],-0.615
same,glycan array binding signal (z-score),[29],-0.734
same,glycan array binding signal (z-score),[30],-0.74
same,glycan array binding signal (z-score),[31],0.008
same,glycan array binding signal (z-score),[32],-0.113
same,glycan array binding signal (z-score),[33],0.403
same,glycan array binding signal (z-score),[34],0.583
same,glycan array binding signal (z-score),[35],-0.865
same,glycan array binding signal (z-score),[36],-0.621
same,glycan array binding signal (z-score),[37],-0.789

# Fetched one by one from above:
binder,measurement,setting,value
B1,glycan array binding signal (z-score),[13],-0.35
same,glycan array binding signal (z-score),[30],-0.74
